No constants are given. Whether binding was seen depends on the method and setting. A result given as binding can be weak or reduced; the word gives no strength. Tags and fused reporters may be left off the sequences shown.
Target: T1, Schizosaccharomyces pombe TATA-binding protein (S. pombe) (UniProt P17871)
T1 sequence: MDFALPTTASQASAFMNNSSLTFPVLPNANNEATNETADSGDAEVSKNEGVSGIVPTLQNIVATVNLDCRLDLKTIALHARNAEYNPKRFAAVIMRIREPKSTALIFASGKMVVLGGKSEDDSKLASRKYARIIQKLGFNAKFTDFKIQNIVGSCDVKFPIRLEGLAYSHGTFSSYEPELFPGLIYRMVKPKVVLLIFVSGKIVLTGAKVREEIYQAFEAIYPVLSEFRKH
Test: native gel or EMSA; TBP, TFIIB (20 ng each), TFIIF (20 or 40 ng) and RNAPII (100 ng) on 32P-labelled Ad-MLP TATA box probe; 20 mM HEPES pH 7.9, 50 mM KCl, 5 mM MgCl2; 15 min at 30 °C; both purified

Pneumocystis carinii TFIIB
binding: binds
